A short description of this data set: general procedure: Boc solid-phase peptide synthesis; benzhydrylamino-polystyrene resin; diisopropylcarbodiimide / HBt. Conditions: whole synthesis, scale 0.5 mmol.

1 substance from patent US4801577A (Syntex (U.S.A.) Inc., priority 1987, dated 1989) can be followed below.

In the case of “N-Ac-D-Nal(2)-D-pCl-Phe-D-Pal(3)-Ser-hArg(CH2 CF3)2 -D-Tyr-Leu-hArg(CH2 CF3)2 -Pro-D-Ala-NH2”, under “acetate salt”, the crude mass amounted to 0.5 g. For the same substance, the isolated mass (acetate salt (crude)) was 64 mg.
